Measured values published in PMC4320536.

Molecular target: Leishmania EIF3E (native eIF3e orthologue of L. infantum) (L. infantum (endogenous in promastigotes))
Assay: affinity purification with mass spectrometry; IP from L. infantum promastigote cytoplasmic extract with affinity purified anti-EIF3E antibodies on protein A sepharose; pre-immune serum as control; eluted proteins analysed by ESI MS/MS, three independent experiments

- binding: binds
B1: G6PD: Glucose-6-Phosphate 1-Dehydrogenase (Leishmania) (enzyme, UniProt A2CIJ8 1-562)
chain: MSEEQSHADQDAYVADVDGILDVLRAQVLERKPDDIFQFISKSALSLQKDRGAESCDRINCKVKDEQKSRALTIIVFGASGDLAKKKTFPALFDLYCGGLLPPEVNIIGYARTKVDDVEKWKHETLMKYFSNLSERGCHAEDFLKHISYFCGAYDSVDDFKRLDAVIREKENAFKGPEKGGNRLFYLALPPSVFASVCESIHKGAMPQEVGGWVRVIIEKPFGRDTKSSAELSQALEPFFDESQLYRIDHYLGKEMVQNIITTRFANRIFSAVWNASNIACVQITFKETIGTEGRGGYFDSIGIIRDVMQNHLTQILALLAMEKPRSLDAECIRDEKVSVLKCIEPITKENCVLGQYTASADGSIPGYLEDVTVPEGSTCPTFAVMRLNINNDRWAGVPFILKAGKAVEQKYVAIRIQFRDEVHPYGEATQRNELVIRAQPSEAMYVKITTKVPGLSGDLRQTHQTELDLTYHTRYDVRLPDAYESLINDALLGNSTNFVRKDELDVAWRIFTPLLHQIDSGEIKPIPYQAGTRGPKEADEFIANNGFKHQKGYHWLPSNKL

These are yes or no findings as the source states them, for the method shown. Binding seen in cells or lysates may run through a third protein. A yes stands for co-enrichment or nearness to the bait. Other partners may have been found. Sequences can lack the tags named with a protein.
